{"source": "PubChem BioAssay AID1159584 | Peter MacCallum Cancer Centre – 2016", "screen": "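Genes that CDH1-null MCF10A cells selectively depend on to survive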 (primary screen)", "system": "human MCF10A breast epithelial cells, parental and CDH1-null", "reagents": "siRNA against human genes", "read-out": "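ATP luminescence (CellTiter-Glo) viability per line relative to mean mock wells over all plates, and the ratio of CDH1-null to parental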", "direction": "CDH1-null / parental viability ratio: higher = CDH1-null cells survive relatively better than parental; CDH1-null viability vs mock: higher = more viable CDH1-null cells", "units": "CDH1-null viability vs mock in fraction of mock", "note": "Shown is a random part of about 18,000 deposited reagents. Further read-outs or replicates are left out here. The record does not give: the amount of reagent, the time to read-out."}
{"gene": "WDR45", "CDH1-null / parental viability ratio": 1.36, "CDH1-null viability vs mock": 0.6}
{"gene": "C12orf57", "CDH1-null / parental viability ratio": 1.23, "CDH1-null viability vs mock": 1.18}
{"gene": "MYOT", "CDH1-null / parental viability ratio": 1.02, "CDH1-null viability vs mock": 0.96}
{"gene": "ALKBH7", "CDH1-null / parental viability ratio": 1.35, "CDH1-null viability vs mock": 0.42}
{"gene": "SAA2", "CDH1-null / parental viability ratio": 1, "CDH1-null viability vs mock": 0.4}
{"gene": "CD8A", "CDH1-null / parental viability ratio": 0.81, "CDH1-null viability vs mock": 0.34}
{"gene": "PGAM4", "CDH1-null / parental viability ratio": 1.2, "CDH1-null viability vs mock": 1.02}
{"gene": "SMAP2", "CDH1-null / parental viability ratio": 0.85, "CDH1-null viability vs mock": 0.7}
{"gene": "UBD", "CDH1-null / parental viability ratio": 0.98, "CDH1-null viability vs mock": 0.86}
{"gene": "MVP", "CDH1-null / parental viability ratio": 0.91, "CDH1-null viability vs mock": 0.41}
{"gene": "ULBP1", "CDH1-null / parental viability ratio": 1.14, "CDH1-null viability vs mock": 0.5}
{"gene": "DBP", "CDH1-null / parental viability ratio": 0.65, "CDH1-null viability vs mock": 0.51}
{"gene": "CPS1", "CDH1-null / parental viability ratio": 0.91, "CDH1-null viability vs mock": 0.92}
{"gene": "ARMCX6", "CDH1-null / parental viability ratio": 0.88, "CDH1-null viability vs mock": 0.87}
{"gene": "SLC43A1", "CDH1-null / parental viability ratio": 1.19, "CDH1-null viability vs mock": 1.27}
{"gene": "ANKRD28", "CDH1-null / parental viability ratio": 1.04, "CDH1-null viability vs mock": 0.88}
{"gene": "CERCAM", "CDH1-null / parental viability ratio": 0.86, "CDH1-null viability vs mock": 0.96}
{"gene": "PROCA1", "CDH1-null / parental viability ratio": 0.71, "CDH1-null viability vs mock": 0.5}
{"gene": "THAP6", "CDH1-null / parental viability ratio": 0.91, "CDH1-null viability vs mock": 0.49}

Entries listed so far whose gene name begins with A or a (3):
{"gene": "ALKBH7", "CDH1-null / parental viability ratio": 1.35, "CDH1-null viability vs mock": 0.42}
{"gene": "ARMCX6", "CDH1-null / parental viability ratio": 0.88, "CDH1-null viability vs mock": 0.87}
{"gene": "ANKRD28", "CDH1-null / parental viability ratio": 1.04, "CDH1-null viability vs mock": 0.88}

The list goes on.
{"gene": "AJUBA", "CDH1-null / parental viability ratio": 0.89, "CDH1-null viability vs mock": 1.06}
{"gene": "AIF1", "CDH1-null / parental viability ratio": 1.13, "CDH1-null viability vs mock": 1.04}
{"gene": "SAXO1", "CDH1-null / parental viability ratio": 0.96, "CDH1-null viability vs mock": 0.88}
{"gene": "ZNF621", "CDH1-null / parental viability ratio": 1.11, "CDH1-null viability vs mock": 0.98}
{"gene": "ARHGEF26", "CDH1-null / parental viability ratio": 1.2, "CDH1-null viability vs mock": 0.77}
{"gene": "CIAO3", "CDH1-null / parental viability ratio": 0.97, "CDH1-null viability vs mock": 0.64}
{"gene": "ASIC4", "CDH1-null / parental viability ratio": 1.8, "CDH1-null viability vs mock": 1.01}
{"gene": "HPD", "CDH1-null / parental viability ratio": 0.93, "CDH1-null viability vs mock": 0.79}
{"gene": "SLAIN1", "CDH1-null / parental viability ratio": 0.9, "CDH1-null viability vs mock": 0.94}
{"gene": "YEATS2", "CDH1-null / parental viability ratio": 0.71, "CDH1-null viability vs mock": 0.64}
{"gene": "ATAT1", "CDH1-null / parental viability ratio": 1.14, "CDH1-null viability vs mock": 0.84}
{"gene": "CSN1S1", "CDH1-null / parental viability ratio": 1.15, "CDH1-null viability vs mock": 0.46}
{"gene": "NUP205", "CDH1-null / parental viability ratio": 1.29, "CDH1-null viability vs mock": 0.36}
{"gene": "KCNIP2", "CDH1-null / parental viability ratio": 1.38, "CDH1-null viability vs mock": 1.08}
{"gene": "TMSB15A", "CDH1-null / parental viability ratio": 0.81, "CDH1-null viability vs mock": 0.84}
{"gene": "MNS1", "CDH1-null / parental viability ratio": 0.97, "CDH1-null viability vs mock": 0.7}
